Our source for the step yield values is patent publication US20170216452A1 (Pfizer Inc., priority 2015, published 2017).

A short description of the data set: general procedure: solution-phase peptide synthesis; HATU.

With “N-[(9H-fluoren-9-ylmethoxy)carbonyl]-2-methylalanyl-N-[(3R,4S,5S)-3-methoxy-1-{(2S)-2-[(1R,2R)-1-methoxy-2-methyl-3-oxo-3-{[(1 S)-2-phenyl-1-(1,3-thiazol-2-yl)ethyl]amino}propyl]pyrrolidin-1-yl}-5-methyl-1-oxoheptan-4-yl]-N-methyl-L-valinamide”, for the setting “coupling step”, the step yield amounted to 74%. “2-methylalanyl-N-[(3R,4S,5S)-3-methoxy-1-{(2S)-2-[(1R,2R)-1-methoxy-2-methyl-3-oxo-3-{[(1 S)-2-phenyl-1-(1,3-thiazol-2-yl)ethyl]amino}propyl]pyrrolidin-1-yl}-5-methyl-1-oxoheptan-4-yl]-N-methyl-L-valinamide” showed a step yield (late stage modification step) of 75%.
